This note sets out measurements from the supplement of paper PMC8975748.

Counter-ions that a name gives are not always drawn. ± gives the standard deviation of the averaged measurements. This is one part of the list. Values are raw readings; no control value is given beside them.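 One yeast strain harboring four plasmids, each bearing a fluorescent protein plus an amino-acid or uracil synthesis gene, founds the community. Random loss of plasmids produces mixed prototroph and auxotroph subpopulations. Cells were fixed, then counted with automated confocal fluorescence imaging, with DMSO-treated wells as vehicle reference.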

This experiment concerns Saccharomyces cerevisiae BY4741 SeMeCo community. Nature of the experiment: imaged cell count per well (cells); higher = more cells. Conditions: 10 µM; 24 h; SM minimal medium. The procedure: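 Same SeMeCo high-content imaging drug screen: Selleck FDA-approved drugs at 10 µM, 24 h in SM medium, 384-well plates, 3 replicates.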
Consider `O=C(O)c1cn(-c2ccc(F)cc2)c2cc(N3CCNCC3)c(F)cc2c1=O` [Sarafloxacin HCl], for which the “imaged cell count per well” value turned out to be 29500 ± 2600.

For the molecule `CC1(C)S[C@@H]2[C@H](NC(=O)C(C(=O)O)c3ccccc3)C(=O)N2[C@H]1C(=O)O` (some centres undefined) [Carbenicillin disodium], the “imaged cell count per well” value was determined as 24500 ± 480.

For the molecule `CCN(CC)CCOC(=O)c1ccc(N)cc1` [Procaine], the “imaged cell count per well” value worked out at 28200 ± 4800.

Regarding `N[C@@H]1CCCCN(c2c(F)cc3c(=O)c(C(=O)O)cn(C4CC4)c3c2Cl)C1` [Besifloxacin HCl], the “imaged cell count per well” value was determined as 21900 ± 2000.

As to `Cc1onc(-c2c(F)cccc2Cl)c1C(=O)N[C@@H]1C(=O)N2[C@@H]1SC(C)(C)[C@@H]2C(=O)O` [Flucloxacillin sodium], the “imaged cell count per well” value came to 20200 ± 10000.

Turning to `O=[N+]([O-])c1ccc(O)c2ncccc12` [Nitroxoline], the “imaged cell count per well” value came out at 738 ± 200.

As for `CC(=O)O[C@H]1C[C@@]2(C)[C@@H](C[C@@H](O)[C@H]3[C@@]4(C)CC[C@@H](O)[C@@H](C)[C@@H]4CC[C@@]32C)/C1=C(\CCC=C(C)C)C(=O)O` [Fusidate Sodium], the “imaged cell count per well” value came out at 20000 ± 4200.

Take `CCc1nn(CCCN2CCN(c3cccc(Cl)c3)CC2)c(=O)n1CCOc1ccccc1` [Nefazodone hydrochloride]: the “imaged cell count per well” value amounted to 20200 ± 12000.

Regarding `COc1ccc(CNc2nc(N3CCC[C@H]3CO)ncc2C(=O)NCc2ncccn2)cc1Cl` [Avanafil], the “imaged cell count per well” value is 25200 ± 3900.
